Results reported in US20190015423A1, “REGULATION OF GENE EXPRESSION BY MODULATING PRIMARY CILIA LENGTH” (THE TRUSTEES OF COLUMBIA UNIVERSITY IN THE CITY OF NEW YORK, priority 2016, published 2019).

Test system: MLO-Y4 osteocytes
Experiment: High-throughput drug screening of primary cilia length and incidence
Format: cell-based
Conditions: 10 μM, 16 hours, triplicate; normalized to vehicle control; standard deviation away from the population average
Protocol: MLO-Y4 osteocytes were maintained on collagen I-coated dishes in MEMα (Life_Technologies) supplemented with 5% fetal bovine serum (FBS), 5% calf serum (CS), and 1% penicillin/streptomycin (P/S) at 37° C. and 5% CO2. Osteocytes were then seeded onto 384-well collagen-coated plates for 72 hours before fixation. […] These libraries include Tocris, Sigma LOPAC, Selleck Chemical, Prestwick, and Spectrum commercially available compound libraries. All cell seeding and plate handling was performed with the Perkin Elmer cell:explorer workstation.
Cells were fixed in 4% paraformaldehyde and permeabilized with 0.1% Triton-X 100 (Sigma). 10% goat serum (vendor) was used for blocking. Cilia were stained using a monoclonal antibody against acetylated α-tubulin (1:20) from a C3B9 hybridoma cell line, and visualized with A F488 (1:1000, ThermoFisher). Nuclei were visualized with Hoechst. Cells were imaged using a GE INCell 2000 high-throughput imager at 40× magnification. 4 fields of view were taken per well.
Each pair of nuclei and cilia images was first analyzed individually, then the entire population was examined to evaluate each compound's effect on cilia length and incidence. […] The augmentation of the algorithm incorporates thresholding for noise removal based on signal intensity and object size, nuclei dilation to exclude non-cellular artifacts, as well as skeletonization of cilia to quantify length. […]

| Structure (SMILES) | Average Length SD Away | Average Incidence SD Away |
| --- | --- | --- |
| O=C1NC(=O)c2c1c(-c1ccccc1)cc1[nH]c3ccc(O)cc3c21 [PD-407824] | 1.51 SD | – |
| COC(=O)[C@H](CCCN=C(N)N)NS(=O)(=O)c1ccc(C)cc1 [TAME] | – | 2.325 SD |
